For this assay, the target named is T1, KBTBD8 (mouse (endogenous in oocytes)) (UniProt Q3UQV5).
T1 sequence: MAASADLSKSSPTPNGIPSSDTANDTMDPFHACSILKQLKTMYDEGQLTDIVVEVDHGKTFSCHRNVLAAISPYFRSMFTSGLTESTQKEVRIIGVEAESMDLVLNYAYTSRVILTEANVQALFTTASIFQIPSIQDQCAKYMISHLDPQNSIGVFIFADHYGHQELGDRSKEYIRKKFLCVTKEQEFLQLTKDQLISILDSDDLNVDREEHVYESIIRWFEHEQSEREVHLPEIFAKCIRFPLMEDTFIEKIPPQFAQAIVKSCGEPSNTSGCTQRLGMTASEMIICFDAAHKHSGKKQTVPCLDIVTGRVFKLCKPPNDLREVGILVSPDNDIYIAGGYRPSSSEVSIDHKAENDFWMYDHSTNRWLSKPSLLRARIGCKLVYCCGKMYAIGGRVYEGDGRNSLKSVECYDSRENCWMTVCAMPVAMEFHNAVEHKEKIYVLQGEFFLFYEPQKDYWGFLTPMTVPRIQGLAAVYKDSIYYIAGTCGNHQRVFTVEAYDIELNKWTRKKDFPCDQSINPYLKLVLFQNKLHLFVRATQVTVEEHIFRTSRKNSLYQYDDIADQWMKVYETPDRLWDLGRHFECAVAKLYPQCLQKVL
The experiment in a line: co-IP; rabbit anti-KBTBD8 or rabbit anti-Cul3 antibody on protein-A/G beads, incubated overnight at 4 °C with pre-cleaned lysate of 600 mouse oocytes; IP buffer 20 mM Tris-HCl pH 8.0, 10 mM EDTA, 1 mM EGTA, 150 mM NaCl, 0.05% Triton X-100, 0.05% NP-40; western blotting with KBTBD8 or Cul3 antibody. Background: Immunoblotting shows a protein as a band on a membrane.

Protein sequences, listed by entry. Tags and fused reporters are not part of them.
UniProt Q9JLV5: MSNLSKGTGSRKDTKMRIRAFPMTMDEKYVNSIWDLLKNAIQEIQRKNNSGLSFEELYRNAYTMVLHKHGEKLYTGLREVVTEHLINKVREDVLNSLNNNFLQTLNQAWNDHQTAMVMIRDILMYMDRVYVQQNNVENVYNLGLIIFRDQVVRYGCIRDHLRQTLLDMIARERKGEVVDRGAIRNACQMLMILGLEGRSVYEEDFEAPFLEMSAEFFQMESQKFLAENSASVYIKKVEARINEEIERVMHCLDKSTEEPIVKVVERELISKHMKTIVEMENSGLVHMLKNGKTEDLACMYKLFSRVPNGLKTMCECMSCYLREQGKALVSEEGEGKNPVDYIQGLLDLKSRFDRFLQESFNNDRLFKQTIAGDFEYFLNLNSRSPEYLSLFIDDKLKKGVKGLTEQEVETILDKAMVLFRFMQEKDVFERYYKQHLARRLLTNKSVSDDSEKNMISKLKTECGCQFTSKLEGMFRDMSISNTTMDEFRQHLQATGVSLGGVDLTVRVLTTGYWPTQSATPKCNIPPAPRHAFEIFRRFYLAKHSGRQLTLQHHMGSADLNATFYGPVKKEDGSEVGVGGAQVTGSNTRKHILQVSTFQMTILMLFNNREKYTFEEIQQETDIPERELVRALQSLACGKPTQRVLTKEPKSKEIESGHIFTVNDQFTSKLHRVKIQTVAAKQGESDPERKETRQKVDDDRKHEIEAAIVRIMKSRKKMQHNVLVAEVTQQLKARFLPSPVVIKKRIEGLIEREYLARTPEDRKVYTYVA

No constants are given. Whether binding was seen depends on the method and setting. In cells and extracts the contact can be indirect. Some binding calls cover weakened binding; strength is not graded here.

Consider cul3 (from UniProt Q9JLV5 1-768), for which the binding result is “binds”.

The record behind these values is article PMC6402520.
